Experimental data published in article PMC3459986.
These are yes or no findings as the source states them, for the method shown. In cells and extracts the contact can be indirect. Some binding calls cover weakened binding; strength is not graded here. For some assays here: Where a sequence is shown, tags or fusion partners need not be part of it.

Chains of the proteins cited; added tags and fusions are not shown.
UniProt O15550: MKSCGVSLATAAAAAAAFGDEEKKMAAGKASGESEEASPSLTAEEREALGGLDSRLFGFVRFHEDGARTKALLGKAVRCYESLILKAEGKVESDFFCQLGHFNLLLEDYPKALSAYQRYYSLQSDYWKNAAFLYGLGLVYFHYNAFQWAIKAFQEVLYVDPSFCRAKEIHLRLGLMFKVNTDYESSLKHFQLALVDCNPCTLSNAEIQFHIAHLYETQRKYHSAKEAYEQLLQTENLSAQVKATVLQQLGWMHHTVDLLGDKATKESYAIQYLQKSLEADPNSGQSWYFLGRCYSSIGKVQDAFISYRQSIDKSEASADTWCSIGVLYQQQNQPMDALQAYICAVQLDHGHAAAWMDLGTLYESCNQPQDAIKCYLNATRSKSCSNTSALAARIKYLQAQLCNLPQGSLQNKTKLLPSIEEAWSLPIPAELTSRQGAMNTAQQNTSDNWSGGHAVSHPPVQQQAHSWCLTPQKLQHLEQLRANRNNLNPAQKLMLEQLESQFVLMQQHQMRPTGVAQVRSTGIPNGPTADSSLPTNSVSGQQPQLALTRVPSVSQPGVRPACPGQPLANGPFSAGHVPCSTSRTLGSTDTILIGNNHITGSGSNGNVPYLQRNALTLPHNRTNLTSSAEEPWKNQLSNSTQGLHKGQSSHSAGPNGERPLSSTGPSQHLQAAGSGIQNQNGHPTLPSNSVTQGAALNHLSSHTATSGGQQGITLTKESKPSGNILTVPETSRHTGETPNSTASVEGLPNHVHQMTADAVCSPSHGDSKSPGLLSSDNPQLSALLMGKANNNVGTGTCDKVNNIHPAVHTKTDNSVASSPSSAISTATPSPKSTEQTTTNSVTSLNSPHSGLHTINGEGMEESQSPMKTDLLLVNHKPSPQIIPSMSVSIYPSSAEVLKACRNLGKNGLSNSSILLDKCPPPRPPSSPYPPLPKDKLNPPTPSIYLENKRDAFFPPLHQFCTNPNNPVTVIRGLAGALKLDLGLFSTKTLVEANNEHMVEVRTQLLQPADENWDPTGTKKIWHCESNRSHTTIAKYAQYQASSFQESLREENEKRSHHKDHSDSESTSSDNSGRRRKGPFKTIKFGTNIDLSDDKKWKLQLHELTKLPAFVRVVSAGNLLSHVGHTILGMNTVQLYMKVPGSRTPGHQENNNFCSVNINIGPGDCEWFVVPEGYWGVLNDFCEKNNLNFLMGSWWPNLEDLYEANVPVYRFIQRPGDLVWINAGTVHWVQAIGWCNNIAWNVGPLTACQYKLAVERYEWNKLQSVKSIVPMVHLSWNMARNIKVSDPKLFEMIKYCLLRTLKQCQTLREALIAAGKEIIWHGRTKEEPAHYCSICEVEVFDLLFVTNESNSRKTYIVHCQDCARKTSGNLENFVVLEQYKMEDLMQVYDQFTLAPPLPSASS
UniProt O14607: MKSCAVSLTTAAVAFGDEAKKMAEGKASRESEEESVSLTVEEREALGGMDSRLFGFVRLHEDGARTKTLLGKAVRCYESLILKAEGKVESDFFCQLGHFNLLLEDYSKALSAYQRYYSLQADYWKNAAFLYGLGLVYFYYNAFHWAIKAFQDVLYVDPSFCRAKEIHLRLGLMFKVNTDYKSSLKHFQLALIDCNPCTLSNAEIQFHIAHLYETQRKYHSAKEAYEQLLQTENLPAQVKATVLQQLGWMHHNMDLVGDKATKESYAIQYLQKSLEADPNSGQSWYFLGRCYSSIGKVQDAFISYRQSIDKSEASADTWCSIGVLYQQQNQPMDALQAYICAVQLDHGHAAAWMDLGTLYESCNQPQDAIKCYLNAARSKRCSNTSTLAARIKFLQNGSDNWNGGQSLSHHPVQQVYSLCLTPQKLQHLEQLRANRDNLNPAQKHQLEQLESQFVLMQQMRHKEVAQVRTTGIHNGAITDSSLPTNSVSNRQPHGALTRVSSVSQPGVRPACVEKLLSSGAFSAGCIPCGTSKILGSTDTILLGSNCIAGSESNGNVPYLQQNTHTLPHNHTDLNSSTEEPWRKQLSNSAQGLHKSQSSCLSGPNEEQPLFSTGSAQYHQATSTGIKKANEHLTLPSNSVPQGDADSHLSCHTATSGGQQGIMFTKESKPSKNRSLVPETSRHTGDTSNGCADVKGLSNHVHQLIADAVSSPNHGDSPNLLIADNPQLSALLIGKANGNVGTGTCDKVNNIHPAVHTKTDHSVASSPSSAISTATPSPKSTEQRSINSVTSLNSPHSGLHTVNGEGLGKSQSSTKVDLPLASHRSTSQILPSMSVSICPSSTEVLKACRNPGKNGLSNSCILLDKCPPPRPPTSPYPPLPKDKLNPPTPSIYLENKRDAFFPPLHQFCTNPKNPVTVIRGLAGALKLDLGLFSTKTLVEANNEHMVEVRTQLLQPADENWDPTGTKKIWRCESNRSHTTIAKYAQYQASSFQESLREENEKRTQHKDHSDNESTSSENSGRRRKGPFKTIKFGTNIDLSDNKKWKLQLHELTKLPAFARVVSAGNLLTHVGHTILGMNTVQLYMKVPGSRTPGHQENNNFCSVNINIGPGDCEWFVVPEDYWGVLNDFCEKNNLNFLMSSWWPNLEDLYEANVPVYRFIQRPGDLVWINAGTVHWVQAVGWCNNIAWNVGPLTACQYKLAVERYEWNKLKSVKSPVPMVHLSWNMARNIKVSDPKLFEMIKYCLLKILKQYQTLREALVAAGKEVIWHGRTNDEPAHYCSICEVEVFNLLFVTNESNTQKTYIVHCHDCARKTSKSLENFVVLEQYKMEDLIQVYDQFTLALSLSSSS
UniProt P51532: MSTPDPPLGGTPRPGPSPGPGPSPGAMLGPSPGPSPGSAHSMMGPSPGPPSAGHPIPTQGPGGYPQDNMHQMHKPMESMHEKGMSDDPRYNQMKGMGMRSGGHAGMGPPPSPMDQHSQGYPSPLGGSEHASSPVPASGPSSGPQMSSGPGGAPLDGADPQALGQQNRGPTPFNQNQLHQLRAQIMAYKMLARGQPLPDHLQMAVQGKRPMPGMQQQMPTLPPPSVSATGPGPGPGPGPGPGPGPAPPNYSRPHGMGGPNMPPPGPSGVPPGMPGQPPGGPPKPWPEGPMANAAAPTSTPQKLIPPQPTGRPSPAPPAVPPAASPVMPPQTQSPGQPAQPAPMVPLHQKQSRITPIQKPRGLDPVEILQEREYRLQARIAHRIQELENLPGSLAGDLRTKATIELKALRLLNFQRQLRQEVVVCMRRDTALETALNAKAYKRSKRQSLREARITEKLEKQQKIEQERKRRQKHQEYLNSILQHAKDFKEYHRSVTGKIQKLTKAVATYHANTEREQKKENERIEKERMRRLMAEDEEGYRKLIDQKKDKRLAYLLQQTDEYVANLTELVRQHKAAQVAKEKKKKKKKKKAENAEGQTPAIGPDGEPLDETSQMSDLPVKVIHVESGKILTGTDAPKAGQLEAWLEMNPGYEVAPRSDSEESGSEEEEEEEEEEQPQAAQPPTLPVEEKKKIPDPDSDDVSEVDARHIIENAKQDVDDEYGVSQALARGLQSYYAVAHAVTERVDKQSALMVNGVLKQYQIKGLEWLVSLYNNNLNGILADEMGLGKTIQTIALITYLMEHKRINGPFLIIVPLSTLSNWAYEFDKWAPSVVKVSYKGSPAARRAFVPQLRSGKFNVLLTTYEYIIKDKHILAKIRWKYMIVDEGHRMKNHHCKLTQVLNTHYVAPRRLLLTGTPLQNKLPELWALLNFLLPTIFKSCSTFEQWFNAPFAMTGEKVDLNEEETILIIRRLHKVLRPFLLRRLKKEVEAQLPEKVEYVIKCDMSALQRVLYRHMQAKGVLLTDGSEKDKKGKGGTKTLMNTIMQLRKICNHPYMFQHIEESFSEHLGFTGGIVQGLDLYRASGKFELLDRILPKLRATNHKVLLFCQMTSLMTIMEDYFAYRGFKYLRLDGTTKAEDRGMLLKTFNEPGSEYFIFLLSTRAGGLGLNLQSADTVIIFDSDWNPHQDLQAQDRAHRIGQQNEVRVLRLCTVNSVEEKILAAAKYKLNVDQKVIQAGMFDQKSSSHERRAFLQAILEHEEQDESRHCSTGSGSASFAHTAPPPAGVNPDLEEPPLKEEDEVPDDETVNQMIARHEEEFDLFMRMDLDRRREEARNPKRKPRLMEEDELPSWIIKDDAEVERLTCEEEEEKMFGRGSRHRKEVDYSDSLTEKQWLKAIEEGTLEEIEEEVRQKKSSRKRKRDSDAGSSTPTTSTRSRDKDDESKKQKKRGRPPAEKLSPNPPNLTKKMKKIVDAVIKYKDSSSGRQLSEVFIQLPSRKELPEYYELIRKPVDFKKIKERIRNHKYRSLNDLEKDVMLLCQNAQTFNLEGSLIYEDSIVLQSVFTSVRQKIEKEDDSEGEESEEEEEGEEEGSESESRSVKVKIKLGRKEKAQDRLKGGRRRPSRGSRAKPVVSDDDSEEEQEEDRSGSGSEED
UniProt Q15291: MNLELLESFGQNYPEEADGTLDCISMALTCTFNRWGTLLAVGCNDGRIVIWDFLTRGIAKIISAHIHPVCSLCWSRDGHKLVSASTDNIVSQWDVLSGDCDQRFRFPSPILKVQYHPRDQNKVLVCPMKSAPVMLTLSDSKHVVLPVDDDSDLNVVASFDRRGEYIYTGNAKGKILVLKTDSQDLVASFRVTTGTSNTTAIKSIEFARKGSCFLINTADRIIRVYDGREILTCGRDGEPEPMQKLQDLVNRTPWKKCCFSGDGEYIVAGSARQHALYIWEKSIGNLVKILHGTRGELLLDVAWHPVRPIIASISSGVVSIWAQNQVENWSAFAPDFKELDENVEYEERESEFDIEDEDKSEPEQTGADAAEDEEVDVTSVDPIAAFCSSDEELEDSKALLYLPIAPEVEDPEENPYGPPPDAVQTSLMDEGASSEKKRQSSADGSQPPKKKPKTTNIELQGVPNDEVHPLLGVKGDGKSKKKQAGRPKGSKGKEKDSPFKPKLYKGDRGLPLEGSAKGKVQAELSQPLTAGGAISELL

Columns and labels:
Flag-Human UTX (human) = Flag-Human UTX (human) (UniProt O15550); assay: co-IP; HEK293T transfected with the Flag-tagged construct; immunoprecipitation with 50 µl Flag beads (Sigma A2220) in buffer A from 500 µg lysate; endogenous RBBP5 detected with anti-RBBP5; Flag vector as negative control
Flag-Human UTY (human) = Flag-Human UTY (human) (UniProt O14607); assay: as above
Flag tagged BRG1 = Flag tagged BRG1 (UniProt P51532); assay: co-IP; HEK293T co-transfected with both tagged constructs; immunoprecipitation with 50 µl Flag beads (Sigma A2220) in buffer A from 500 µg lysate (1 mg for UTY-NKX2–5); blot with anti-HA or anti-Myc; Flag vector as negative control
Flag tagged SRF = target: T1, Flag tagged SRF (UniProt P11831); assay: as above
T1 sequence: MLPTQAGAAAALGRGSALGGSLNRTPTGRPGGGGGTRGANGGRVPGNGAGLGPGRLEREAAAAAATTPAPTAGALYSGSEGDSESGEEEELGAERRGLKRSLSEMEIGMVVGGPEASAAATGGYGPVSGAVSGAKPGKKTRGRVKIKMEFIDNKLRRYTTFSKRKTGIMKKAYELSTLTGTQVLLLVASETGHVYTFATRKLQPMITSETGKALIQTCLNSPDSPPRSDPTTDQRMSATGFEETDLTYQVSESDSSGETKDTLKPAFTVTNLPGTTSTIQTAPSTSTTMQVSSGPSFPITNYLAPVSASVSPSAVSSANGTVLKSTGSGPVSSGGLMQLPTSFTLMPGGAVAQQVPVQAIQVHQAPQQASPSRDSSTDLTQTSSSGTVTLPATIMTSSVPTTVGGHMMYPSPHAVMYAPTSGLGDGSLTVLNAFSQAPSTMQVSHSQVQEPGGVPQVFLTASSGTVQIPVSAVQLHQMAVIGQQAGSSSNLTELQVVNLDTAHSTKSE

Flag tagged TBX5 = target: T2, Flag tagged TBX5 (UniProt Q99593); assay: as above
T2 sequence: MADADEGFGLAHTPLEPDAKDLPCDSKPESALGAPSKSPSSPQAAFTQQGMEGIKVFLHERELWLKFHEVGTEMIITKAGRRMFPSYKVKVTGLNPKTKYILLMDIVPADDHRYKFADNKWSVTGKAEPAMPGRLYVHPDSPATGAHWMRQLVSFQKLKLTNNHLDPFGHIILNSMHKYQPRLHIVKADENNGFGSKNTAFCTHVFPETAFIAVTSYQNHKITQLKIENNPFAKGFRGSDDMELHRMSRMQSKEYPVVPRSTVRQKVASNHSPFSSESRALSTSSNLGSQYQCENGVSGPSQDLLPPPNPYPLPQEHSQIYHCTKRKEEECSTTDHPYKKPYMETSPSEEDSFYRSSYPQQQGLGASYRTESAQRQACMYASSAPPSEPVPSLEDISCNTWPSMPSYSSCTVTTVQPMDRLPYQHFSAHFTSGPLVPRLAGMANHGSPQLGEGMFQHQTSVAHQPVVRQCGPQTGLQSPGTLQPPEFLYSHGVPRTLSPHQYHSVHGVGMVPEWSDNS

Row | Substance | binding (Flag-Human UTX (human)) | binding (Flag-Human UTY (human)) | binding (Flag tagged BRG1) | binding (Flag tagged SRF) | binding (Flag tagged TBX5)
1 | RBBP5 (from UniProt Q15291 1-538) | binds | binds | – | – | –
2 | Myc-UTY (from UniProt O14607 1-1347) | – | – | binds | binds | binds
